Assay results from patent publication US20190015400A1, “Antifungal Compositions” (priority 2017, published 2019).

Legend:
[1] = test system: C. glabrata ATCC 2001 (strain H); assay: Time-kill assay, POS and EBA; assay type: cell-based, Candida glabrata; conditions: drug alone at concentration used in MICcombination
Description: (§1) The protocol for time-kill assays followed methods previously described with minor modifications. Yeast cultures were grown overnight in YEPD medium at 35° C. with shaking at 200 rpm. A working stock of fungal cells was made by diluting cultures in 1640 medium to an OD600 of 0.125 (˜1×10^6 CFU/mL). From the working stock, 100 μL of cells was added to 4.9 mL of RPMI 1640 medium in sterile culture tubes, making the starting fungal cell concentration ˜1×10^5 CFU/mL. Drug was then added to the fungal cells. […] Treated fungal cultures were incubated in the culture tubes at 35° C. with 200 rpm shaking for 24 h. Samples were aliquoted from the different treatments at regular time points (0, 3, 6, 9, 12, and 24 h) and plated in duplicate. For each time point, cultures were vortexed, 100 μL of culture was aspirated, and 10-fold serial dilutions were made in sterile ddH2O. From the appropriate dilutions, 100 μL of fungal suspension was spread on PDA plates and incubated at 35° C. for 48 h before colony counts were determined. At 24 h, 50 μL of 1 mM resazurin in phosphate buffered saline (PBS) was added to the treatments and incubated at 35° C. with 200 rpm shaking for 2 h in the dark for visual inspection. […]

[2] = test system: C. glabrata ATCC 2001 (strain H) biofilm; assay: Biofilm disruption assay (XTT, SMIC90), POS and EBA; assay type: cell-based, Candida glabrata
Description: Biofilm disruption assays. […] Biofilm assays were performed in 96-well plates using XTT [2,3-bis(2-methoxy-4-nitro-5-sulfophenyl)-2H-tetrazolium-5-carboxanilide] to measure the viability of the biofilm as previously described. An overnight culture of yeast was grown at 35° C. in YEPD medium with shaking at 200 rpm. The overnight culture was diluted in RPMI 1640 medium to an OD600 between 0.12 and 0.15 to make a working stock. Working stock was transferred to the 96-well plate in 100 μL aliquots, leaving one column empty for the sterile control. The plates were incubated at 37° C. for 24 h to allow formation of the biofilm. The medium and planktonic cells from the plate were then aspirated. PBS was then used to wash any remaining planktonic cells off of the biofilm wells. 100 μL of PBS was aliquoted into wells and then removed. The wells were washed 3 times with PBS. […] Plates were incubated at 37° C. for 24 h. Finally, the plates were washed 3 times with PBS before adding 100 μL of XTT dye. The XTT was prepared by dissolving XTT at 0.5 mg/mL concentration in sterile PBS. Before adding to a plate, 1 μL of 10 mM menadione in acetone was added to 10 mL of the 0.5 mg/mL solution of XTT. […] Plates were then read with a SpectraMax M5 plate reader (Molecular Devices, Sunnyvale, Calif., USA) for absorbance at 450 nm. […]

[3] = test system: C. glabrata ATCC 2001 (strain H); assay: MIC and checkerboard assay, azoles + antihistamines; assay type: cell-based, Candida glabrata
Description: (§2) Determination of minimum inhibitory concentration (MIC) values. MIC values were recorded for all antifungals and antihistamines in order to determine the concentration range of compounds to be used in the checkerboard assays.
(§3) The MIC assays were done using the broth microdilution method as described in CLSI document M27-A3 with minor modifications. Yeast cultures were started by picking a colony from a PDA plate stored at 4° C. The colonies were grown in YEPD medium overnight at 35° C. with shaking at 200 rpm. In a 96-well plate compounds were diluted lengthwise along the plate in serial 2-fold dilutions in the RPMI 1640 medium. The yeast cultures were diluted in RPMI 1640 medium to an OD600 within the range of 0.12 and 0.15 (˜1×10^6 cells/mL). The fungal cells were further diluted by taking 25 μL of fungal cells and adding them to 10 mL of RPMI 1640 medium before adding 100 μL to plate (200 μL total volume). The plates were incubated at 35° C. for 48 h. Visual inspection of the wells for no growth was used to determine the MIC. All compounds were tested in duplicate (TABLES 6 and 7).
(§4) Checkerboard assays were done as previously described to determine the fractional inhibitory concentration index (FICI). 2-fold dilutions of the azole drug were made in RPMI 1640 medium lengthwise along the plate. […] The FICI was calculated based on the formula below. […]

[4] = aqueous assay medium, from DMSO stock
[5] = test system: C. albicans ATCC 10231 (strain B) biofilm; assay: Biofilm disruption assay (XTT, SMIC90), POS and EBA; assay type: cell-based, Candida albicans
Description: (§5) Biofilm disruption assays. […] Biofilm assays were performed in 96-well plates using XTT [2,3-bis(2-methoxy-4-nitro-5-sulfophenyl)-2H-tetrazolium-5-carboxanilide] to measure the viability of the biofilm as previously described. An overnight culture of yeast was grown at 35° C. in YEPD medium with shaking at 200 rpm. The overnight culture was diluted in RPMI 1640 medium to an OD600 between 0.12 and 0.15 to make a working stock. Working stock was transferred to the 96-well plate in 100 μL aliquots, leaving one column empty for the sterile control. The plates were incubated at 37° C. for 24 h to allow formation of the biofilm. The medium and planktonic cells from the plate were then aspirated. PBS was then used to wash any remaining planktonic cells off of the biofilm wells. 100 μL of PBS was aliquoted into wells and then removed. The wells were washed 3 times with PBS. […] Plates were incubated at 37° C. for 24 h. Finally, the plates were washed 3 times with PBS before adding 100 μL of XTT dye. The XTT was prepared by dissolving XTT at 0.5 mg/mL concentration in sterile PBS. Before adding to a plate, 1 μL of 10 mM menadione in acetone was added to 10 mL of the 0.5 mg/mL solution of XTT. After addition of XTT (containing menadione), the plates were incubated at 3 h at 37° C. in the dark. 80 μL of liquid from each well was transferred to a new plate. Plates were then read with a SpectraMax M5 plate reader (Molecular Devices, Sunnyvale, Calif., USA) for absorbance at 450 nm. For these experiments, we determined the sessile MIC (SMIC90), which is defined as the drug concentration required to inhibit the metabolic activity of biofilm by 90% compared to the growth control. The SMIC90 values were used to calculate the FICI as described above (TABLE 10). The plates used to determine the SMIC90 are provided in FIGS. 91A-H. Each assay was performed in duplicate.

[6] = test system: C. albicans ATCC 64124 (strain F) biofilm; assay: as above; assay type: cell-based, Candida albicans
Description: as §5

A549 cells = assay: Mammalian cytotoxicity (resazurin cell viability), POS and EBA; assay type: cell-based, human; conditions: drug alone
Description: (§6) To examine whether the inhibitory effect of the antifungal and antihistamine combinations is specific to fungal cells, the combinations were tested with 4 mammalian cell lines: A459, BEAS-2B, HEK-293, and HaCaT. […] The assays were done in 96-well plates. A549 and BEAS-2B cells were plated at a density of 3×10^3 cells/mL, HaCaT were plated at 2×10^4 cells/mL, and HEK-293 cells were plated at 1×10^4 cells/mL as determined by using a hemacytometer. […] All assays were done in quadruplicate.

HEK-293 cells = assay: as above; assay type: cell-based, human; conditions: drug alone
Description: as §6

BEAS-2B cells = assay: as above; assay type: cell-based, human; conditions: drug alone
Description: as §6

[7] = test system: 13 Candida spp. strains (strains A-M); assay: MIC and checkerboard assay, azoles + antihistamines, panel; assay type: cell-based; conditions: synergistic POS + EBA combinations; MIC of the labelled drug
Description: as §2, §3, §4

[8] = test system: C. albicans ATCC 10231 (strain B); assay: Time-kill assay, POS and EBA; assay type: cell-based, Candida albicans; conditions: drug alone at concentration used in MICcombination
Description: as §1

MIC ([3]; Nakaseomyces glabratus, ATCC2001, drug alone): > 25 µg/mL | MIC in combination ([3]; combination POS + EBA, MIC of the labelled drug): 0.78 µg/mL | maximal concentration where no precipitation was observed [4]: 25 µg/mL | MIC in synergistic combinations [7]: 0.78 to 3.1 µg/mL
Structure (SMILES): CC(C)(C)c1ccc(C(=O)CCCN2CCC(OC(c3ccccc3)c3ccccc3)CC2)cc1 [EBA, ebastine]
inhibition of fungal growth [1]: did not inhibit fungal growth | anti-biofilm activity of combination ([2]; POS with EBA): synergy | SMIC90 ([2]; drug alone): ≥ 25 µg/mL | anti-biofilm activity of combination ([5]; POS with EBA): no activity | SMIC90 ([5]; drug alone): ≥ 25 µg/mL | anti-biofilm activity of combination ([6]; POS with EBA): no activity | SMIC90 ([6]; drug alone): ≥ 25 µg/mL | maximum concentration with no observed toxicity (complete cell survival) (A549 cells): 3.1 µg/mL | maximum concentration with no observed toxicity (complete cell survival) (HEK-293 cells): 3.1 µg/mL | maximum concentration with no observed toxicity (complete cell survival) (BEAS-2B cells): 3.1 µg/mL | inhibition of fungal growth [8]: did not inhibit fungal growth
